These results are taken from PubChem BioAssay AID2685 (National Center for Advancing Translational Sciences (NCATS), 2010).

The experiment in a line: qHTS Assay for Lipid Storage Modulators in Drosophila S3 Cells.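 As to cell number change: cells counted by Cell Tracker Red CMTPX staining in the red channel.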 Conditions: BODIPY lipid droplet fluorescence, 18-24 h; for cell number change: measured here: cell count max response, cells fed with added oleic acid. Put shortly:
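Drosophila S3 cells loaded with oleic acid (400 uM, as added) and compounds at several concentrations; lipid droplets imaged by 488-nm laser-scanning cytometry, 500–530 nm intensity and object ratio to cell channel. Percent activity normalized to 20 uM Triacsin C.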

Setting [1] is: measured here: lipid fluorescence (Fed channel) AC50, cells fed with added oleic acid.
The mark [2] stands for this setting: measured here: cell number channel AC50, cells fed with added oleic acid.

This is one part of the list. Further columns of the screen follow, without active or inactive calls. Most of these compounds were active or inconclusive in the main read-out, so they are no random draw. Words in brackets tell the shape of the fitted curve; partial curves, single points and poor fits give uncertain potencies.

In general, AC50 refers to the midpoint of the concentration-response curve, whichever way the signal moves. Lower therefore signals greater potency. With `O=c1[nH]c(=O)n(CCC2=CCCCC2)c(O)c1C=NC1CCN(Cc2ccccc2)CC1`, the cell number change was -13.9%. Under setting [1], the AC50 is 25.9 µM [falling, single point].

Turning to `CN1CCC(O)(c2ccccc2)C(C(=O)c2ccccc2)C1` (stereo not drawn), the cell number change is -1.01%. The AC50 under setting [1] was 3.66 µM [rising, single point].

`Cc1ccccc1-[n+]1c(-c2ccccc2)cc(-c2ccccc2)cc1-c1ccccc1`: the concentration at half-maximal activity (AC50) under setting [1] is 20.6 µM [falling, single point].

Turning to `C/C(=N\Nc1ccccc1)c1c(O)n(-c2ccccc2)c(=O)[nH]c1=O`, the cell number change was determined as 41.7%.

As to `CN1CCN(Cc2cc3c(cc2[N+](=O)[O-])OCO3)CC1`, the cell number change was 21.8%. The AC50 under setting [1] was 0.0651 µM [rising, full curve, poor fit].

Regarding `CC(=Nc1ccccc1N)c1c(O)n(C)c(=O)n(C)c1=O`, the cell number change amounted to 30.1%.

Consider `CN1CC(C(=O)c2ccc(F)cc2)C(c2c(F)cccc2Cl)C1` (stereo not drawn), for which the cell number change is -44.9%. The AC50 under setting [2] is 0.58 µM [falling, full curve].

As for `CCOC(=O)c1c(NS(=O)(=O)c2ccccc2)n(CCCOC)c2nc3ccccc3nc12`, the AC50 is 0.92 µM [falling, full curve, poor fit] under setting [2] and 0.00411 µM [rising, full curve, poor fit] under setting [1].

For the compound `CCOC(=O)Cn1c(=O)oc2cc(S(=O)(=O)N3CCCC(C(=O)OCC)C3)ccc21` (stereo not drawn), the AC50 under setting [2] is 0.116 µM [falling, full curve, poor fit].

With `Oc1ccc(Cl)c(Cl)c1`, the cell number change is -14.4%. Besides, the AC50 under setting [1] is 1.16 µM [falling, single point].

As to `Cc1ccc(N(C)C(=O)C2CCN(S(=O)(=O)c3ccc4c(c3)oc(=O)n4C)CC2)cc1`, the AC50 under setting [2] was 0.231 µM [rising, full curve, poor fit].

On to `O=c1[nH]c(=O)n(C2CCCCC2)c(O)c1C=Nc1ccc(N2CCOCC2)cc1`, for which the cell number change was -4.75%. Further, the AC50 under setting [1] was 0.13 µM [falling, full curve, poor fit].

For the compound `O=C(Cc1ccccc1)N1CCN(Cc2cccc(Cl)c2)CC1`, the cell number change was -13.1%.

On to `COC(=O)C1=C(c2ccc3ccccc3c2)C[C@@H]2CC[C@H]1N2C(=O)N1CCCCC1`, for which the cell number change was -15.8%. Also, under setting [1], the AC50 was 1.16 µM [rising, single point].

For the compound `CCOc1ccc(-n2c(O)c(C=Nc3ccc(NC(C)=O)cc3)c(=O)[nH]c2=O)cc1`, the cell number change was 9.93%.

For the compound `COc1ccc(Cc2c(O)[nH]c(=S)[nH]c2=O)cc1`, the cell number change amounted to 17.7%.

In the case of `CC(=O)Nc1ccccc1C(=O)OCC(=O)Nc1ncccn1`, the cell number change was -2.92%.

For `O=C(CN1C2CCC1CC(O)(c1cccnc1)C2)Nc1ccc2c(c1)OCO2` (stereo not drawn), the cell number change stood at 186%. In addition, the AC50 under setting [2] was 5.8 µM [rising, partial curve]. Also, the AC50 under setting [1] is 6.51 µM [rising, partial curve].
